Source: paper PMC10638427
No constants are given. Whether binding was seen depends on the method and setting. Binding seen in cells or lysates may run through a third protein. A yes stands for co-enrichment or nearness to the bait. Other partners may have been found. Blank lines part the entries; values can stand above or below the molecule they belong to.

Chains of the proteins cited; added tags and fusions are not shown.
UniProt P28632: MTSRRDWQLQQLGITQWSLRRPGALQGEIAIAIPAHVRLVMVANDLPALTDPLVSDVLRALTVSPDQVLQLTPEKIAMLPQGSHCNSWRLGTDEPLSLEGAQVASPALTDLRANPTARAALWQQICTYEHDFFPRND
UniProt P0ACB0: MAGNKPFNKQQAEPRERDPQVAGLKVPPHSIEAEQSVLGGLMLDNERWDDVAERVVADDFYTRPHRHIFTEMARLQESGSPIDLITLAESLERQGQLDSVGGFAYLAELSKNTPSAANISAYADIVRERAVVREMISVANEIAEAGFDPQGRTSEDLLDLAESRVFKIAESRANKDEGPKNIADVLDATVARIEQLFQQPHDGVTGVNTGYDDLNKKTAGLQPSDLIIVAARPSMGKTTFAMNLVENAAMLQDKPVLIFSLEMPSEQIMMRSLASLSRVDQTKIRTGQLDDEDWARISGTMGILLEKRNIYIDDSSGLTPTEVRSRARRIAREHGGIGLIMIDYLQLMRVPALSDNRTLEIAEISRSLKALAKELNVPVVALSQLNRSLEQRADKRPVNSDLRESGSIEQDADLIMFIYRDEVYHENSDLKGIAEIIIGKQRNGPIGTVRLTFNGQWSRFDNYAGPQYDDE
UniProt P0AGE0: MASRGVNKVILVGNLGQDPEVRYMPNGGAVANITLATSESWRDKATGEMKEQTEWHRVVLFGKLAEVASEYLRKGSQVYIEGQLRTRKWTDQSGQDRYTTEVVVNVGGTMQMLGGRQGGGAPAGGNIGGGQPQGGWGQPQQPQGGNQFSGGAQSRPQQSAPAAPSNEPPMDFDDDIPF
UniProt P09980: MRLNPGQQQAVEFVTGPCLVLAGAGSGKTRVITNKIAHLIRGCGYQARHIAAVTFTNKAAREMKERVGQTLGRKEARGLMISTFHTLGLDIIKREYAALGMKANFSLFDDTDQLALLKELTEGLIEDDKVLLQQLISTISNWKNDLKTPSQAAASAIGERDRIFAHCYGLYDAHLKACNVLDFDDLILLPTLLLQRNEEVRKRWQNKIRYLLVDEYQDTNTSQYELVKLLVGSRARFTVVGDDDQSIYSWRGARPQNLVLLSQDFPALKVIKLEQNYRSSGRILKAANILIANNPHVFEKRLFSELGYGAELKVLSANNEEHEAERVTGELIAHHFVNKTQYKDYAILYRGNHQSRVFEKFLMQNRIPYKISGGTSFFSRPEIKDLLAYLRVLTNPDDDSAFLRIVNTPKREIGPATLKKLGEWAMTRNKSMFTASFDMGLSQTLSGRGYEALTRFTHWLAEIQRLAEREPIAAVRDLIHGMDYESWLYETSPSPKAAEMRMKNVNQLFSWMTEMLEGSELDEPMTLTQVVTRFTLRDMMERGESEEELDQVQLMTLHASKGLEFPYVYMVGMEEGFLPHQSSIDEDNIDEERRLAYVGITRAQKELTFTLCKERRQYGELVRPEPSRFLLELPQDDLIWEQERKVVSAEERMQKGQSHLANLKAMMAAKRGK

How the values were obtained:
Assay in all cases: affinity purification with mass spectrometry; SPA-tagged bait from E. coli MG1655 lysate (nuclease-treated, 0.1% Triton X-100, 100 mM NaCl, pH 7.9, 4 °C); anti-FLAG Sepharose, TEV cleavage, then calmodulin Sepharose; on-bead trypsin digestion and LC-MS/MS; cultures grown as LB log, LB ON and M9 0.2% acetate; three biological replicates; two controls (untagged MG1655 and mVenus-SPA)
HolD-SPA (E. coli) = HolD-SPA (E. coli) (UniProt P28632)
DnaB-SPA (E. coli) = DnaB-SPA (E. coli) (UniProt P0ACB0)
DiaA-SPA (E. coli) = molecular target: T1, DiaA-SPA (E. coli) (UniProt P66817)
T1 sequence: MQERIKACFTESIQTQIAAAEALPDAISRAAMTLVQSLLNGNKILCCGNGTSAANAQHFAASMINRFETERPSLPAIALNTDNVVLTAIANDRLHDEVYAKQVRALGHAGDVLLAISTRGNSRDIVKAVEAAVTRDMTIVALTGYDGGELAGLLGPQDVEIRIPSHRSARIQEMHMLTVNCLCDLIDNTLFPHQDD

- binding (HolD-SPA (E. coli)): binds
Molecule: Ssb (from UniProt P0AGE0 1-178)

- binding (HolD-SPA (E. coli)): binds
B2: topoisomerase III (protein, UniProt P14294 1-653)
chain: MRLFIAEKPSLARAIADVLPKPHRKGDGFIECGNGQVVTWCIGHLLEQAQPDAYDSRYARWNLADLPIVPEKWQLQPRPSVTKQLNVIKRFLHEASEIVHAGDPDREGQLLVDEVLDYLQLAPEKRQQVQRCLINDLNPQAVERAIDRLRSNSEFVPLCVSALARARADWLYGINMTRAYTILGRNAGYQGVLSVGRVQTPVLGLVVRRDEEIENFVAKDFFEVKAHIVTPADERFTAIWQPSEACEPYQDEEGRLLHRPLAEHVVNRISGQPAIVTSYNDKRESESAPLPFSLSALQIEAAKRFGLSAQNVLDICQKLYETHKLITYPRSDCRYLPEEHFAGRHAVMNAISVHAPDLLPQPVVDPDIRNRCWDDKKVDAHHAIIPTARSSAINLTENEAKVYNLIARQYLMQFCPDAVFRKCVIELDIAKGKFVAKARFLAEAGWRTLLGSKERDEENDGTPLPVVAKGDELLCEKGEVVERQTQPPRHFTDATLLSAMTGIARFVQDKDLKKILRATDGLGTEATRAGIIELLFKRGFLTKKGRYIHSTDAGKALFHSLPEMATRPDMTAHWESVLTQISEKQCRYQDFMQPLVGTLYQLIDQAKRTPVRQFRGIVAPGSGGSADKKKAAPRKRSAKKSPPADEVGSGAIA

More lines, now with the values behind:

Molecule: Rep (from UniProt P09980 1-673)
- binding (DnaB-SPA (E. coli)): binds

B1: DnaA (protein, UniProt P03004 1-467)
chain: MSLSLWQQCLARLQDELPATEFSMWIRPLQAELSDNTLALYAPNRFVLDWVRDKYLNNINGLLTSFCGADAPQLRFEVGTKPVTQTPQAAVTSNVAAPAQVAQTQPQRAAPSTRSGWDNVPAPAEPTYRSNVNVKHTFDNFVEGKSNQLARAAARQVADNPGGAYNPLFLYGGTGLGKTHLLHAVGNGIMARKPNAKVVYMHSERFVQDMVKALQNNAIEEFKRYYRSVDALLIDDIQFFANKERSQEEFFHTFNALLEGNQQIILTSDRYPKEINGVEDRLKSRFGWGLTVAIEPPELETRVAILMKKADENDIRLPGEVAFFIAKRLRSNVRELEGALNRVIANANFTGRAITIDFVREALRDLLALQEKLVTIDNIQKTVAEYYKIKVADLLSKRRSRSVARPRQMAMALAKELTNHSLPEIGDAFGGRDHTTVLHACRKIEQLREESHDIKEDFSNLIRTLSS
- binding (DiaA-SPA (E. coli)): binds

B3: DnaC (protein, UniProt P0AEF0 1-245)
chain: MKNVGDLMQRLQKMMPAHIKPAFKTGEELLAWQKEQGAIRSAALERENRAMKMQRTFNRSGIRPLHQNCSFENYRVECEGQMNALSKARQYVEEFDGNIASFIFSGKPGTGKNHLAAAICNELLLRGKSVLIITVADIMSAMKDTFRNSGTSEEQLLNDLSNVDLLVIDEIGVQTESKYEKVIINQIVDRRSSSKRPTGMLTNSNMEEMTKLLGERVMDRMRLGNSLWVIFNWDSYRSRVTGKEY
- binding (DnaB-SPA (E. coli)): binds
